These are yes or no findings as the source states them, for the method shown. Binding can be weak; no strength is given.

In test [1] the target is recombinant caspase-3 protein. Nature of the test: phage ELISA, VHH-phage on immobilized caspase-3. Background: An ELISA detects its analyte on a solid surface through an enzyme-linked reagent.
In test [2] the target is recombinant caspase-3 protein. Nature of the test: phage ELISA on immobilized caspase-3.

B1: Casp2 VHH displayed on phage (VHH)
VHH: DVQLQASGGGLVQAGGSLRLSCAASTNIFRDKFMAWYRQAPGKQRELVASITTGGRTDYADSVKGRFTISRDNTKDTMYLQMNSLKPEDTAVYYCAGFLGRTYWGQGTQVTVSS
B1: the binding result in test [1] and in test [2] was “binds” each time.

B2: Casp1 VHH displayed on phage (VHH)
VHH: DVQLQASGGGLVQPGGSLRLSCAASGSLSRITVMGWYRQAPGKQRELVAIITSSGGTNYADSVKGRFTISRDNAKNTVYLQMNSLKPEDTAVYYCLAARGYDRYWGRGTQVTVSS
For B2, the binding entry in test [1] and in test [2] was “binds” each time.

Values taken from patent US20090324579A1.
